# Source: paper PMC9307593
# T1: Flag-tagged NUPR1 (wild type) (UniProt O60356)
# T1 sequence: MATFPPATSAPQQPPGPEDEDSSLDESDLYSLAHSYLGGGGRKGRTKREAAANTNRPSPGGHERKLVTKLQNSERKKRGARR
# T2: GFP-tagged NUPR1 (UniProt O60356)
# T2 sequence: T1 sequence
# T3: recombinant wild-type NUPR1 (UniProt O60356)
# T3 sequence: T1 sequence
# B1: GFP-tagged NUPR1 (protein, UniProt O60356 1-82)
# chain: T1 sequence
# Legend:
# [1] = target: T1, Flag-tagged NUPR1 (wild type); assay: proximity ligation; MiaPaCa-2 cells transfected with Flag WT-NUPR1 or the mutants Thr68Gln, Ala33Gln, Thr68Gln/Ala33Gln; PARP1 and Flag primary antibodies
# [2] = target: T2, GFP-tagged NUPR1; assay: co-IP; MiaPaCa-2 cells transfected with PARP1-Flag and NUPR1-GFP plasmids; anti-FLAG or anti-GFP agarose beads, blots with anti-GFP or anti-Flag; with or without ZZW-115
# [3] = target: T3, recombinant wild-type NUPR1; assay: fluorescence spectra; spectrum of the mixture against the sum of the spectra of the isolated proteins; PARP1 2 uM, NUPR1 20 uM, 25 °C, pH 7.5, 50 mM Tris; both purified
# [4] = target: T3, recombinant wild-type NUPR1; assay: far-UV circular dichroism; spectrum of the mixture against the sum of the spectra of the isolated proteins; PARP1 2 uM, NUPR1 20 uM, 25 °C, pH 7.5, 50 mM Tris; both purified
# [5] = target: T3, recombinant wild-type NUPR1; assay: co-IP; recombinant NUPR1 and PARP1 mixed 1:1 (2 ug of each); Dynabeads and anti-NUPR1 antibody; eluate analysed by Western blotting; both purified
# [6] = target: PARP1-Flag; assay: co-IP; MiaPaCa-2 cells transfected with PARP1-Flag and NUPR1-GFP plasmids; anti-FLAG or anti-GFP agarose beads, blots with anti-GFP or anti-Flag; with or without ZZW-115
molecule,measurement,setting,value
"PARP1 (endogenous, MiaPaCa-2 cells) (human (endogenous in MiaPaCa-2)) (enzyme)",binding,[1],binds
PARP1-Flag (enzyme),binding,[2],binds
recombinant PARP1 (enzyme),binding,[3],binds
same,binding,[4],binds
same,binding,[5],binds
B1,binding,[6],binds

# These are yes or no findings as the source states them, for the method shown. Binding calls can cover weak binding; strength is not graded here. For part of these data: Binding seen in cells or lysates may run through a third protein. For part of these data: Sequences can lack the tags named with a protein.
